Laboratory results taken from patent US20210388022A1, “SUBSTITUTED GUANIDINO AND AMIDINO REAGENTS AND THE USE THEREOF FOR PROTEIN DENATURATION” (Waters Technologies Corporation, priority 2020, published 2021).

Assay: Downstream interference of denaturants in generic LC-MS peptide mapping method
Settings: 1 mM denaturant in digestion buffer

Structure (SMILES) | interference peaks across the gradient (1-40% acetonitrile) where peptides normally elute
CN(C)C(=N)N(C)C [Reagent 1, 1,1,3,3-tetramethylguanidine] | did not appear to show significant interference peaks
CN(C)C(=NC(C)(C)C)N(C)C [Reagent 2, 2-tert-butyl-1,1,3,3-tetramethylguanidine] | showed two prominent peaks
C1CN=C2NCCCN2C1 [Reagent 3, 1,5,7-triazabicyclo[4.4.0]dec-5-ene] | did not appear to show significant interference peaks
